In paper PMC6879528 one finds binding data, which are given here for one molecule.

Results are given in words; binding and its absence hold for the method and conditions named.

For test [1], the target named is Myeloid-derived growth factor (MYDGF), human, recombinant wild type without the signal peptide (human) (UniProt Q969H8). Briefly: SEC; analytical SEC of MYDGF alone, 10 µg injected, 50 mM NaPO4, 200 mM L-arginine, pH 6.8; molecular weight from BioRad standards; both purified. On the technique in general: SEC sorts molecules by how far they enter the pores of the column.

Test [2] shares this target. Briefly: crystal structure; MYDGF alone; trigonal form (P3(1)21, two molecules per ASU) and a distinct orthorhombic form; both purified.

B1: Myeloid-derived growth factor (MYDGF), human, recombinant wild type without the signal peptide (protein, UniProt Q969H8 32-173)
chain: VSEPTTVAFDVRPGGVVHSFSHNVGPGDKYTCMFTYASQGGTNEQWQMSLGTSEDHQHFTCTIWRPQGKSYLYFTQFKAEVRGAEIEYAMAYSKAAFERESDVPLKTEEFEVTKTAVAHRPGAFKAELSKLVIVAKASRTEL
For B1, the figures for the binding entry in test [1] and in test [2] were “no binding (tested: 10 µg injected)” and “no binding”, respectively.
